At least one peptide structure holds a part that was inferred or is arguable (an end, a ring closure or a residue).
Experiments:
[1] = test system: CA20948 (pancreatic) tumor, rich in somatostatin (SST-2) receptors; assay: Non-invasive in vivo fluorescence imaging of CA20948 tumor bearing rat; set-up: species or system male Lewis rats
Description: A non-invasive in vivo fluorescence imaging apparatus was employed to assess the efficacy of indocyanine green (ICG) in three different rat tumor cell lines of the inventive contrast agents developed for tumor detection in animal models. A LaserMax Inc. laser diode of nominal wavelength 780 nm and nominal power of 40 mW was used. The detector was a Princeton Instruments model RTE/CCD-1317-K/2 CCD camera with a Rodenstock 10 mm F2 lens (stock #542.032.002.20) attached. An 830 nm interference lens (CVI Laser Corp., part # F10-830-4-2) was mounted in front of the CCD input lens, such that only emitted fluorescent light from the contrast agent was imaged.
Three tumor cell lines, DSL 6/A (pancreatic), Dunning R3327-H (prostate), and CA20948 (pancreatic), which are rich in somatostatin (SST-2) receptors were induced into male Lewis rats by solid implant technique in the left flank area (Achilefu et al., Invest Radiology, 2000, pp. 479-485). Palpable masses were detected nine days post implant.
The peptide, octreotate, is known to target somatostatin (SST-2) receptors. Therefore, the cyano-octreotates conjugate, Cytate 1, was prepared as described in Example 4. The pancreatic acinar carcinoma, CA20948, was induced into male Lewis rats as described in Example 9.
Using the CCD camera apparatus, dye localization in the tumor was observed. Usually, an image of the animal was taken pre-injection of contrast agent, and the pre-injection image was subsequently subtracted (pixel by pixel) from the post-injection images to remove background. However, the background subtraction was not done if the animal had been removed from the sample area and was later returned for imaging several hours post injection.

[2] = test system: CA20948 rat pancreatic tumor cells over-expressing somatostatin receptor; assay: Fluorescence endoscopy of CA20948 tumor in GI tract; type: in vivo, Lewis rat; conditions: tail vein injection; endoscope inserted 60 minutes post-injection; excitation 780 nm, detection 830 nm

## C[C@@H](O)[C@H](NC(=O)[C@@H]1CSSC[C@H](NC(=O)[C@@H](Cc2ccccc2)NC(=O)CC[N+]2=C(/C=C/C=C/C=C/C=C3/N(CCC(=O)O)c4ccc5ccccc5c4C3(C)C)C(C)(C)c3c2ccc2ccccc32)C(=O)N[C@@H](Cc2ccc(O)cc2)C(=O)N[C@H](Cc2c[nH]c3ccccc23)C(=O)N[C@@H](CCCCN)C(=O)N[C@@H]([C@@H](C)O)C(=O)N1)C(=O)O [Cytate 1, monooctreotate-bisethylcarboxymethylindocyanine dye]
[1]; 45 minutes post administration (FIG. 3b)
  fluorescent image: green and yellow areas in the left and right flanks and in the tail, however, there was a dark blue/blue green area in the left flank
[1]; 27 hours post administration (FIG. 4)
  fluorescent image: only the left flank showed a blue/blue green fluorescent area
[1]; CA20948 tumor, 0.5 ml of 1.0 mg/ml in 25% dimethylsulfoxide/water, tail vein
  specificity for SST-2 receptors (dye localization in tumor images): demonstrated the specificity of cytate 1 for the SST-2 receptors
[1]; one minute post administration (FIG. 3a)
  fluorescent image: suggested the presence of the tumor in the left flank of the animal
[2]
  fluorescence intensity in the tumor versus surrounding normal tissues: much higher than in the surrounding normal tissues
